Experimental data from patent US8546537B2, “Streptavidin having low immunogenicity and use thereof” (The University of Tokyo, priority 2009, dated 2013).

Test: Isothermal Titration calorimetry (ITC) of B5209B mouse-scFv-mcSA414 and biotin
Type: binding
Conditions: 25° C., PBS

B1: B5209B mouse-scFv-mcSA414: fusion of anti-ROBO1 monoclonal antibody B5209B mouse scFv and mcSA414, SEQ ID NO: 16 (protein, listed as Mus sp.)
chain: MAEVQLVESGGGVVQPGGSLKLSCAASGFTFSTYDMSWVRQTPDKRLELVATINSNGGSTYYPDSVKGRFTSSRDNAKNILYLQMSSLKSEDTAMYYCAREALLRPPYYALDYWGQGTSVTVSSAGGGGSGGGGSGGGGSDILDIQMTQSPASLSASVGETVTITCGASENIYGALTWYQRKQGKSPQLLIYGAINLADDKSSRFSGSGSGRQYSLKISSLHPDDVATYYCQNVLSTPFTFGSGTKLEIKAAGSSGSGSAAEAGITGTWSNQLGSTFIVTAGADGALTGTYESAVGNAESRYVLTGRYDSAPATDGSGTALGWTVAWKNNSKNAHSATTWSGQYVGGADAKINTQWLLTSGTTQANAWKSTLVGHDTFTKVKPSAASGARHHHHHH
For B1, the “amount of enthalpy change (ΔH)” value was -6.09 kcal/mol and the “amount of entropy change (ΔS)” value was “less than the detection limit”.
